Results on 1 molecule are retold here after article PMC9032790.

Data set [1] concerns 1F7-RAb. Briefly: 1F7-RAb-based GICA, selectivity and sensitivity in standard solution. Particulars: clothianidin standard solution. It counts as binding, mouse.
Data set [2] relates to 1F7-RAb. Description: 1F7-RAb-based GICA in spiked environmental and agricultural samples. Further details: species or system mouse.

SMILES strings stand for the structures.

With `CN/C(=N\[N+](=O)[O-])NCc1cnc(Cl)s1` [clothianidin], in the data set on 1F7-RAb [1], the “concentration at which the T line was invisible” value is recorded as “more than 10 μg/L”. Moreover, the “visual detection limit (LOD) by GICA” value in the data set with 1F7-RAb [1] (naked eye after 10 min) turned out to be 2.5 µg/L. Also, the “visual LOD by GICA” value in the data set on 1F7-RAb [2] (oranges) was about 15 ng/g; in the data set on 1F7-RAb [2] (river water), “about 5 ng/mL”; with 1F7-RAb [2] (soil), about 10 ng/g; in the data set with 1F7-RAb [2] (tomatoes), about 15 ng/g.
